Results as given in patent publication US7737155B2, “Nitrogen-containing heterocyclic compounds and methods of use thereof” (Schering Corporation, priority 2005, dated 2010).
Structures were worked out from names or drawings and are uncertain.

Chains of the proteins cited; added tags and fusions are not shown.
UniProt Q8TDS4, whole entry: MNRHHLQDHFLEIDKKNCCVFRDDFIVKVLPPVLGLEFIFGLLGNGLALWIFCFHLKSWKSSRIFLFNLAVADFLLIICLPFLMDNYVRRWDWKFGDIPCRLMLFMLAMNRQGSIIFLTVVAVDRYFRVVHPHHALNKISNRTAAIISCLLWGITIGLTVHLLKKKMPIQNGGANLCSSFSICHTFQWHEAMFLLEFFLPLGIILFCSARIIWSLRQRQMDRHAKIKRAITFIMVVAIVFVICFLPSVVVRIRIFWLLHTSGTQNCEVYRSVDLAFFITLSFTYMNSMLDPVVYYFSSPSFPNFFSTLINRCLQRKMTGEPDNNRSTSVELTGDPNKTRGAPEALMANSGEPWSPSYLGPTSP

Target: recombinant human nicotinic acid receptor (NAR) (Homo sapiens, UniProt Q8TDS4)
Assay: Nicotinic Acid Receptor Assay: inhibition of forskolin-stimulated cAMP accumulation in CHO cells (MesoScale Discovery cAMP kit)
Assay type: cell-based
Conditions: read-out: NA EC50 camp, CHO cells expressing recombinant human NAR

## CCCCc1cc(=O)oc2nc(O[C@H]3C[C@@H](COCc4ccccc4)C3)[nH]c(=O)c12
  EC50: 44 nM
